Here are results for one substance from paper doi:10.1101/597153.

These are yes or no findings as the source states them, for the method shown. Binding seen in cells or lysates may run through a third protein. Binding can be weak; no strength is given. Tags and fused reporters may be left off the sequences shown.

The target in the assay is T1, FLAG-SIRT1-WT (mouse) (UniProt Q923E4).
T1 sequence: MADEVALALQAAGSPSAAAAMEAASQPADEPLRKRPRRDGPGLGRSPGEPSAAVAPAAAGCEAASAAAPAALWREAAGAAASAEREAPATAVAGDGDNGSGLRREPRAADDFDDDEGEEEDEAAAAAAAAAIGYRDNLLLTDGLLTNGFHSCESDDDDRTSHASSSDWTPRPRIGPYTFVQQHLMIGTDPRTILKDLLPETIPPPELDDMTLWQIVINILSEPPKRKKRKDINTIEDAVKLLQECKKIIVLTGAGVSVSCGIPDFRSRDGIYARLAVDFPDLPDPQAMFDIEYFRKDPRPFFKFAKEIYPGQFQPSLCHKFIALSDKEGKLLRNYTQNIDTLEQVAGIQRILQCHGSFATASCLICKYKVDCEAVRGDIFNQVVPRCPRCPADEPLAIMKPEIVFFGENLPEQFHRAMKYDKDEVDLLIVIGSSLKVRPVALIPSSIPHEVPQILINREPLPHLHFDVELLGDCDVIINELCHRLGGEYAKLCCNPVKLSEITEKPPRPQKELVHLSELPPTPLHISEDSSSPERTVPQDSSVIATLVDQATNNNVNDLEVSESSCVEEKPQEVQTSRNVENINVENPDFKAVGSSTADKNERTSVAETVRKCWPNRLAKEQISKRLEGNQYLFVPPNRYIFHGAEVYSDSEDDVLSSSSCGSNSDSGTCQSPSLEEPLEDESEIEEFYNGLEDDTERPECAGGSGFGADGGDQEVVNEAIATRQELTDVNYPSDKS
As to the kind of experiment: co-IP.

Regarding “AKT (human (endogenous in HEK293T)) (enzyme)”, the binding entry was “binds”.
